The record followed here is article PMC8327961, “Nse5/6 inhibits the Smc5/6 ATPase and modulates DNA substrate binding” (The EMBO Journal, 2021).

The target of assay [1] is T1, Smc6-3C-Twin-Strep (S. cerevisiae, UniProt Q12749 1-1114).
T1 construct: Smc6, S. cerevisiae; stood in the assays as a subunit of the hexamer or octamer; also called Smc6-Twin-Strep; Smc6-3C-TS; source: E. coli (DE3) Rosetta, co-expressed with the other subunits of the hexamer, purified as part of the complex; not shown: Twin-Strep (after a 3C site), C-terminal, kept
T1 sequence (looked up): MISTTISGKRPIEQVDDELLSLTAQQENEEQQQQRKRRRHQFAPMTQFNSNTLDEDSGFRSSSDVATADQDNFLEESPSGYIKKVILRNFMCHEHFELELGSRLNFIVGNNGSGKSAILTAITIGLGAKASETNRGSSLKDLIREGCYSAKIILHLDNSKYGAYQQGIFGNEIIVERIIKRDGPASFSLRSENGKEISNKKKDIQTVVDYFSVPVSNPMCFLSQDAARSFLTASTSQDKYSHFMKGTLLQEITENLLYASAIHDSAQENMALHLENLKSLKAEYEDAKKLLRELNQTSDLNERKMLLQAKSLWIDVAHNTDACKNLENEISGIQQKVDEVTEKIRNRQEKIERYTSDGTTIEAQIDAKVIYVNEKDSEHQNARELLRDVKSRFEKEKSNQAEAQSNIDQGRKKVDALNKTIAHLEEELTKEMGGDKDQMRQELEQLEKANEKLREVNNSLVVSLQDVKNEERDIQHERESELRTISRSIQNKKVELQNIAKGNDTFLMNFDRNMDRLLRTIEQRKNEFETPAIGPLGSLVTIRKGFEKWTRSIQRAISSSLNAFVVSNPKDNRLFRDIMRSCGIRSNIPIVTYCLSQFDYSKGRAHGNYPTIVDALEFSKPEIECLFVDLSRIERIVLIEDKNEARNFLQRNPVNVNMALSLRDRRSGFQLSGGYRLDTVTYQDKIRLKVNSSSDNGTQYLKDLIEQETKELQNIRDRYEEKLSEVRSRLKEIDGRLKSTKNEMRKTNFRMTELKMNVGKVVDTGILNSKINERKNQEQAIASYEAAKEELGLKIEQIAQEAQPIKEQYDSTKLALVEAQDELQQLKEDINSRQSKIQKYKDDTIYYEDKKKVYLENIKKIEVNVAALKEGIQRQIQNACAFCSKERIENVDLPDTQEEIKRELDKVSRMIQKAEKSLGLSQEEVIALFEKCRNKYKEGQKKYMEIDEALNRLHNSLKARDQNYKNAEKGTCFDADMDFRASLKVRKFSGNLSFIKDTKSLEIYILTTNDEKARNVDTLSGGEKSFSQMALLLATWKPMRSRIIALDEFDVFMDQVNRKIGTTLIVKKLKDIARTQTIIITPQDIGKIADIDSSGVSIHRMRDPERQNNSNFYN
Description: co-purification; six subunits co-expressed in E. coli from one plasmid; captured by the Twin-Strep-tag on Smc6 (StrepTrap), then heparin and gel filtration; single species on analytical gel filtration, peak fractions on SDS-PAGE.

Assay [2] concerns the target T2, Smc5 (S. cerevisiae) (UniProt Q08204).
T2 sequence: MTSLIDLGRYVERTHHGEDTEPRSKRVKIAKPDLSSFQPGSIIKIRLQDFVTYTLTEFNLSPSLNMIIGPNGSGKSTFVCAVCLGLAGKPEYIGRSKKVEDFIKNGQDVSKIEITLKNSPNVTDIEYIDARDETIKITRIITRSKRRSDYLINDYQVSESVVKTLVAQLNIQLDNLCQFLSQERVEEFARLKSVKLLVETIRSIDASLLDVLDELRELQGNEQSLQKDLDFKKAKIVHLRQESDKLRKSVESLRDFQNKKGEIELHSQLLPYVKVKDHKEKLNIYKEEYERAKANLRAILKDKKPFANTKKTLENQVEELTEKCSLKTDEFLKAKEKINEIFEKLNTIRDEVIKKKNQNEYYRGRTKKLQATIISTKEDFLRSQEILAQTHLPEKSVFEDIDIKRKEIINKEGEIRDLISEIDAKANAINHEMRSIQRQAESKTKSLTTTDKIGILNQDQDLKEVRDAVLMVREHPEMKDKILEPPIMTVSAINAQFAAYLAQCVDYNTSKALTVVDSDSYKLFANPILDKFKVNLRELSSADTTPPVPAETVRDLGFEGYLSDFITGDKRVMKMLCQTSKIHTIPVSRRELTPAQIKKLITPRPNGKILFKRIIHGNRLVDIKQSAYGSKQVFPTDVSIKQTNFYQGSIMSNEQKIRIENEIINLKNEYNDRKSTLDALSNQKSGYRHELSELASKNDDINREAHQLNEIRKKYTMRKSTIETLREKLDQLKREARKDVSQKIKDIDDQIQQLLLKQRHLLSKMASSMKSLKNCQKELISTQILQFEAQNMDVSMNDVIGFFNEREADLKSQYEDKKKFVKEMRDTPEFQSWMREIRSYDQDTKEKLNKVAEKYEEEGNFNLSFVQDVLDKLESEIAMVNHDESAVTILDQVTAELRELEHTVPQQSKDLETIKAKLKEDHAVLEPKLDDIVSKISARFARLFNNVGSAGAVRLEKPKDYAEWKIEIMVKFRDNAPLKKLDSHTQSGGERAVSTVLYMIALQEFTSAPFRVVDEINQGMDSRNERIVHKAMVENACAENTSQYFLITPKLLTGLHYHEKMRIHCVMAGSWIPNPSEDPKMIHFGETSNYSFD
As to the kind of experiment: cross-linking; XL-MS with the lysine-reactive PhoX (0.25 mM, 20 min, RT) on the reconstituted octamer, 1.6 µM; salt buffer 20 mM Hepes-KOH pH 7.5, 250 mM NaCl; both purified.

Assay [3] has as its target T2, Smc5 (S. cerevisiae). As to the kind of experiment: cross-linking; XL-MS with PhoX (0.25 mM, 20 min, RT) on the octamer, 1.6 µM; ATPase buffer (10 mM Hepes-KOH pH 7.5, 150 mM potassium acetate, 2 mM MgCl2, 20% glycerol); without and with 2 mM ATP and 16 nM plasmid DNA; wild-type and Smc5(EQ)/Smc6(EQ) octamers; both purified.
The target of assay [4] is T1, Smc6-3C-Twin-Strep. As to the kind of experiment: pull-down; purified octamer pulled down via Smc6-Twin-Strep, in the absence or presence of ATP and plasmid DNA, conditions as for XL-MS; both purified.

These are yes or no findings as the source states them, for the method shown. Some binding calls cover weakened binding; strength is not graded here. For part of these data: Sequences can lack the tags named with a protein.

B1: Smc5 (natural protein, S. cerevisiae, UniProt Q08204 1-1093, looked up)
chain: MTSLIDLGRYVERTHHGEDTEPRSKRVKIAKPDLSSFQPGSIIKIRLQDFVTYTLTEFNLSPSLNMIIGPNGSGKSTFVCAVCLGLAGKPEYIGRSKKVEDFIKNGQDVSKIEITLKNSPNVTDIEYIDARDETIKITRIITRSKRRSDYLINDYQVSESVVKTLVAQLNIQLDNLCQFLSQERVEEFARLKSVKLLVETIRSIDASLLDVLDELRELQGNEQSLQKDLDFKKAKIVHLRQESDKLRKSVESLRDFQNKKGEIELHSQLLPYVKVKDHKEKLNIYKEEYERAKANLRAILKDKKPFANTKKTLENQVEELTEKCSLKTDEFLKAKEKINEIFEKLNTIRDEVIKKKNQNEYYRGRTKKLQATIISTKEDFLRSQEILAQTHLPEKSVFEDIDIKRKEIINKEGEIRDLISEIDAKANAINHEMRSIQRQAESKTKSLTTTDKIGILNQDQDLKEVRDAVLMVREHPEMKDKILEPPIMTVSAINAQFAAYLAQCVDYNTSKALTVVDSDSYKLFANPILDKFKVNLRELSSADTTPPVPAETVRDLGFEGYLSDFITGDKRVMKMLCQTSKIHTIPVSRRELTPAQIKKLITPRPNGKILFKRIIHGNRLVDIKQSAYGSKQVFPTDVSIKQTNFYQGSIMSNEQKIRIENEIINLKNEYNDRKSTLDALSNQKSGYRHELSELASKNDDINREAHQLNEIRKKYTMRKSTIETLREKLDQLKREARKDVSQKIKDIDDQIQQLLLKQRHLLSKMASSMKSLKNCQKELISTQILQFEAQNMDVSMNDVIGFFNEREADLKSQYEDKKKFVKEMRDTPEFQSWMREIRSYDQDTKEKLNKVAEKYEEEGNFNLSFVQDVLDKLESEIAMVNHDESAVTILDQVTAELRELEHTVPQQSKDLETIKAKLKEDHAVLEPKLDDIVSKISARFARLFNNVGSAGAVRLEKPKDYAEWKIEIMVKFRDNAPLKKLDSHTQSGGERAVSTVLYMIALQEFTSAPFRVVDEINQGMDSRNERIVHKAMVENACAENTSQYFLITPKLLTGLHYHEKMRIHCVMAGSWIPNPSEDPKMIHFGETSNYSFD
notes: Smc5, S. cerevisiae; stood in the assays as a subunit of the hexamer or octamer; source: E. coli (DE3) Rosetta, co-expressed with the other subunits of the hexamer, purified as part of the complex
Regarding B1, the binding entry in assay [1] was “binds”.

B2: Nse5-AviTag (from Nse5-AviTag-3C-Twin-Strep, Twin-Strep removed) (natural protein, S. cerevisiae, UniProt Q03718 1-556, looked up)
chain: MDGALINSVLYVSPRNGAHYFVELTEKHLLAFEMLNSMCLLENYDHVLLFLECQFGKSHNLAVIPFDIILVLFTLSTLSEYYKEPILRANDPYNTSRETLSRRALKLLQKYLAILKEFDSEQYNLYDLELLRCQFFLAIDTLTPKKQKWGFDRFRRTKSESGVTYRQNASVDPELDQAKTFKNPYRSYISCLEQRNTILGNRLLNLKLNEPGEFINMILWTLSNSLQESTPLFLSSHEIWMPLLEILIDLFSCRQDYFIQHEVAQNVSKSLFVQRLSESPLAVFFESLNTRNFANRFSEYVFLNCDYKLPSDNYATPVHPVYNGENTIVDTYIPTIKCSPLYKSQKSLALRRKLIGSCFKLLLRVPDGHRLITPRIVADDVIQGISRTLASFNDILQFKKFFMTENLSQESYFIPLLAEGTLSEILKDTQECVVILTLVENLSDGVSFCNEVIGLVKSKCFAFTEQCSQASYEEAVLNIEKCDVCLLVLLRYLLHLIGTEAILDAKEQLEMLHAIEKNDSGRRQWAKALNLGNDPPLLYPIVSQMFGVHDKSVIIE
notes: Nse5, S. cerevisiae, full length; subunit of the octamer used for XL-MS; the AviTag lies before the 3C site and should remain; source: E. coli (DE3) Rosetta, co-expressed with Nse6, purified (StrepTrap, heparin, SEC); Twin-Strep removed by HRV-3C; not shown: Twin-Strep (after a 3C site), C-terminal, cleaved
As for B2, the binding result in assay [2] was “binds”.

B3: Nse2 (natural protein, S. cerevisiae, UniProt P38632 1-267, looked up)
chain: MALNDNPIPKSVPLHPKSGKYFHNLHARDLSNIYQQCYKQIDETINQLVDSTSPSTIGIEEQVADITSTYKLLSTYESESNSFDEHIKDLKKNFKQSSDACPQIDLSTWDKYRTGELTAPKLSELYLNMPTPEPATMVNNTDTLKILKVLPYIWNDPTCVIPDLQNPADEDDLQIEGGKIELTCPITCKPYEAPLISRKCNHVFDRDGIQNYLQGYTTRDCPQAACSQVVSMRDFVRDPIMELRCKIAKMKESQEQDKRSSQAIDVL
notes: Nse2, S. cerevisiae; source: E. coli (DE3) Rosetta, co-expressed with the other subunits of the hexamer, purified as part of the complex
On to B3, for which the binding entry in assay [3] and in assay [1] was “binds” each time.

B4: Nse1 (protein, UniProt Q07913 1-336)
chain: MEVHEEQVSAPVTGDATAKYLLQYILSARGICHENALILALMRLETDASTLNTEWSIQQWVDKLNDYINAINVKLNLLGYKIIRINHGIGRNAVTLKAKQNFESFEDNTAIRAHNNDYAVLQSIVLPESNRFFVYVNLASTEETKLATRFNQNEIEFMKWAIEQFMISGETIVEGPALETSIIVKEVNRILVAATGDSNLAKWRKFSTFTVGSTNLFQFQELTATDIEDLLLRLCELKWFYRTQEGKFGIDLRCIAELEEYLTSMYNLNTCQNCHKLAIQGVRCGNESCREENEETGENSLSQIWHVDCFKHYITHVSKNCDRCGSSLITEGVYVI
Consider B4, for which the binding entry in assay [1] and in assay [4] was “binds” in each case.

B5: Nse4 (natural protein, S. cerevisiae, UniProt P43124 1-402, looked up)
chain: MSSTVISRKRRNSTVTEPDSSGETRKQKKSRSDEKSSSSKDGDPQLEFKVLQGYRDLESEMHKGRAQVTRTGDIGVAMDNLNAVDSLFNKVIGIKNNGLFAHDARAMVSISELAQISVRNLKFDDSRSMVNLENIVNSLKRYMLKEHFKLNNIAENRNDLTLAADEQSAADQQEESDGDIDRTPDDNHTDKATSSFKATSMRHSYLQQFSHYNEFSQFNWFRIGALYNTISKNAPITDHLMGPLSIEKKPRVLTQRRRNNDQVGEKITAEKITQHSLNSTQQETTPEQVKKCFKKLSKKLGPEGSINLFKFIIDPNSFSRSIENLFYTSFLIKEGKLLMEHDEEGLPTIKIKQSISHTDSRSKEIERQRRRAAHQNHIIFQMDMPTWRKLIKKYNITSPFLD
notes: Nse4, S. cerevisiae; also called kleisin Nse4; source: E. coli (DE3) Rosetta, co-expressed with the other subunits of the hexamer, purified as part of the complex
As for B5, the binding result in assay [3], in assay [1] and in assay [4] was “binds” in each case.
